For experiment [1], the target named is PCNA trimer (coordinates from X-ray structure PDB ID 1VYJ, used in molecular dynamics simulations) (human) (UniProt P12004). Briefly: molecular dynamics simulation (in silico), PCNA trimer with p21 peptides.
The target is the same in experiment [2]. In words: molecular dynamics simulation (in silico), PCNA trimer with two p21 peptides and one modified peptide.

By UniProt entry, the sequences of proteins in these tests, tags left out. Where a name states a change or a piece, a line headed by the entry shows the natural chain unless it says otherwise.
UniProt P12004: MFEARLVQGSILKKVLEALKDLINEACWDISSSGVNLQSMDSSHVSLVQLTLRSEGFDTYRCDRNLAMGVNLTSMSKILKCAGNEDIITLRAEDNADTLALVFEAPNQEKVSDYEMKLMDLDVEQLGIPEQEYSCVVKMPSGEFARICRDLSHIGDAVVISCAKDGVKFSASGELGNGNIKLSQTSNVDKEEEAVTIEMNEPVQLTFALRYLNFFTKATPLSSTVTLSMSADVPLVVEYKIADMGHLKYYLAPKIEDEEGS

These are yes or no findings as the source states them, for the method shown. Some results given as binding are weak or reduced against the parent protein; the word gives no strength.

B1: p21 peptide … used in the molecular dynamics simulations (peptide)
peptide: RQTSMTDFYHSKR
B1: the binding entry in experiment [1] and in experiment [2] was “binds” in each case.

(Values after patent publication US20130059773A1, “COMPOUNDS FOR THE TREATMENT OF INFLAMMATION AND NEUTROPENIA” (priority 2010, published 2013).)
